The source of these data is the supplement of paper PMC4604168 (melanoma cell lines).

The structures appear in SMILES notation. The list shows a part of the results. Repeats are few or missing, and single values can be far off.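 Imaging used 1,536-well plates; nuclei positive for cleaved PARP by antibody were divided by total DNA-stained nuclei to yield the apoptosis fraction. Doses for screening kept most cells viable, and cell lines differ markedly in resting and induced cleaved-PARP levels.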

For the test, the system named is WM1716. Briefly: cleaved PARP positive nuclei fraction relative to DMSO control; melanoma cells; higher = more apoptosis. The conditions noted are these: library dose: low library concentration; 72 h.
With `O=c1[nH]nc(Sc2ncc([N+](=O)[O-])s2)n1-c1ccc2c(c1)OCCO2` + COc1ccc(COc2ccc(Cc3cnc(N)nc3N)cc2OC)cc1 [GW2580] (first compound 0.2 µM, partner dose 1 µM), the “cleaved PARP positive nuclei fraction” value is 213%. The result for `COc1cc([C@@H]2c3cc4c(cc3[C@@H](O[C@@H]3O[C@@H]5CO[C@@H](C)O[C@H]5[C@H](O)[C@H]3O)[C@H]3COC(=O)[C@H]23)OCO4)cc(OC)c1O` [etoposide] + O=S(=O)(c1ccccc1)N(CC(F)(F)F)c1ccc(C(O)(C(F)(F)F)C(F)(F)F)cc1 [T0901317] (first compound 0.02 µM, partner dose 1.4 µM) reads 241%. The result for `O=c1[nH]nc(Sc2ncc([N+](=O)[O-])s2)n1-c1ccc2c(c1)OCCO2` + O=S(=O)(c1ccccc1)N(CC(F)(F)F)c1ccc(C(O)(C(F)(F)F)C(F)(F)F)cc1 [T0901317] (first compound 0.2 µM, partner dose 1.4 µM) reads 120%; that for `Cc1cc(Nc2cc(N3CCN(C)CC3)nc(Sc3ccc(NC(=O)C4CC4)cc3)n2)n[nH]1` [Tozasertib] + Cn1cncc1[C@@](N)(c1ccc(Cl)cc1)c1ccc2c(c1)c(-c1cccc(Cl)c1)cc(=O)n2C [tipifarnib] (first compound 0.006 µM, partner dose 0.01 µM), 57.8%; that for `CC[C@]1(O)C[C@H]2CN(CCc3c([nH]c4ccccc34)[C@@](C(=O)OC)(c3cc4c(cc3OC)N(C=O)[C@H]3[C@@](O)(C(=O)OC)[C@H](OC(C)=O)[C@]5(CC)C=CCN6CC[C@]43[C@@H]65)C2)C1` [vincristine] + c1cc(-c2cnn3cc(-c4ccc(OCCN5CCCCC5)cc4)cnc23)ccn1 [Dorsomorphin] (first compound 0.0001 µM, partner dose 0.4 µM), 260%. The result for `Cc1ccc(Nc2nccc(N(C)c3ccc4c(C)n(C)nc4c3)n2)cc1S(N)(=O)=O` [Pazopanib] + CN(NC(=O)CC(=O)NN(C)C(=S)c1ccccc1)C(=S)c1ccccc1 [STA4783] (first compound 0.4 µM, partner dose 0.006 µM) reads 305%. Consider `Cc1cn(-c2cc(NC(=O)c3ccc(C)c(Nc4nccc(-c5cccnc5)n4)c3)cc(C(F)(F)F)c2)cn1` [nilotinib] + COc1ccc(COc2ccc(Cc3cnc(N)nc3N)cc2OC)cc1 [GW2580] (first compound 0.2 µM, partner dose 1 µM), for which the “cleaved PARP positive nuclei fraction” value worked out at 116%. Take `COc1cc([C@@H]2c3cc4c(cc3[C@@H](O[C@@H]3O[C@@H]5CO[C@@H](C)O[C@H]5[C@H](O)[C@H]3O)[C@H]3COC(=O)[C@H]23)OCO4)cc(OC)c1O` [etoposide] + C[C@@H]1CCN(C(=O)CC#N)C[C@@H]1N(C)c1ncnc2[nH]ccc12 [CP690550] (first compound 0.02 µM, partner dose 1 µM): the “cleaved PARP positive nuclei fraction” value worked out at 33.3%. The result for `Cc1cn(-c2cc(NC(=O)c3ccc(C)c(Nc4nccc(-c5cccnc5)n4)c3)cc(C(F)(F)F)c2)cn1` [nilotinib] + Cn1cc(/C=C2\C(=O)Nc3cccnc32)c2ccccc21 [GW441756] (first compound 0.2 µM, partner dose 0.4 µM) reads 79.2%; that for `Cc1cn(-c2cc(NC(=O)c3ccc(C)c(Nc4nccc(-c5cccnc5)n4)c3)cc(C(F)(F)F)c2)cn1` [nilotinib] + O=c1cc(-c2cccc3c2Sc2ccccc2S3)oc(N2CCOCC2)c1 [KU55933] (first compound 0.2 µM, partner dose 1 µM), 144%. For `CC[C@]1(O)C[C@H]2CN(CCc3c([nH]c4ccccc34)[C@@](C(=O)OC)(c3cc4c(cc3OC)N(C=O)[C@H]3[C@@](O)(C(=O)OC)[C@H](OC(C)=O)[C@]5(CC)C=CCN6CC[C@]43[C@@H]65)C2)C1` [vincristine] + NC(=O)Nc1cc(-c2cccc(F)c2)sc1C(=O)N[C@H]1CCCNC1 [AZD7762] (first compound 0.0001 µM, partner dose 0.02 µM), the “cleaved PARP positive nuclei fraction” value was 512%. With `CCCCCCCCCCCCCCCCCCOP(=O)([O-])OC1CC[N+](C)(C)CC1` [Perifosine] + COc1ccc2c(c1)CCC1C2CCC2(C)C(NCCCCCCN3C(=O)C=CC3=O)CCC12 [U73122] (first compound 0.4 µM, partner dose 0.4 µM) the figure was 247%.
